Measured values reported in US11187660B2, “Fluorescent probes for monitoring voltage by photo-induced electron transfer” (The Regents of the University of California, priority 2011, dated 2021).
Entries after “also recorded” stand apart in the source; their conditions may differ.

Experiments:
HEK293 cells = experiment: Membrane staining of HEK cells (epifluorescence and confocal microscopy); type: cell-based, human; details: for membrane localization / staining: 2 μM, 15 minutes at 37° C.
rat hippocampal neurons = experiment: Optical detection of evoked action potentials in cultured hippocampal neurons; type: cell-based; details: 2 μM, 15 minutes
Protocol: To assay VF2.4.Cl's utility for monitoring neuronal activity, hippocampal neurons isolated from rats neonates were loaded with 2 μM VF2.4.Cl for 15 minutes, washed twice and imaged. […] Neurons were patched, current clamped, and injected with a small pulse (250-400 pA, 1-5 ms) to induce action potential firing. By using a high speed EMCCD camera, capable of sampling small regions of interest (ROI) at rates of approximately 2 kHz, enabled single trial optical detection of action potentials. An action potential with a total voltage change of ˜130 mV was well resolved optically and gave a ΔF/F of 24% with a signal-to-noise ratio of 16. […]
To assess whether VF probes can detect action potentials in single trials, we used cultured rat hippocampal neurons. […] The optical trace matched the physiology trace and gave about a 20% ΔF/F increase in fluorescence and a 16:1 signal-to-noise ratio (SNR) in a single trial. […]
Electrophysiological recordings of HEK293 cells and cultured neurons were performed with an Axopatch 200A or 200B amplifier (Molecular Devices) at room temperature. The signals were digitized with Digidata 1332A and recorded with pCLAMP 9 software (Molecular Devices) on a PC. […]
For voltage sensitivity measurements, regions of interest were drawn around clamped cells and the mean fluorescence measured in ImageJ or Slidebook. […]

Row | Structure (SMILES) | membrane localization / staining (HEK293 cells) | membrane staining (HEK293 cells; 100 nM) | membrane staining of neurons (rat hippocampal neurons)
1 | CCCCN(CCCC)c1ccc(/C=C/c2ccc(-c3c4cc(Cl)c(=O)cc-4oc4cc(O)c(Cl)cc34)c(S(=O)(=O)O)c2)cc1 [VF1.4.Cl, (E)-5-(4-(dibutylamino)styryl)-2-(2,7-dichloro-6-hydroxy-3-oxo-3H-xanthen-9-yl)benzenesulfonic acid] | excellent membrane localization |  | 
2 | CN(C)c1ccc(/C=C/c2ccc(/C=C/c3ccc(-c4c5cc(Cl)c(=O)cc-5oc5cc(O)c(Cl)cc45)c(S(=O)(=O)O)c3)cc2)cc1 [VF2.1.Cl, 5-(4-(4-(dimethyllamino)styryl)styryl)-2-(2,7-dichloro-6-hydroxy-3-oxo-3H-xanthen-9-yl)benzenesulfonic acid] |  | bright staining of HEK cell membranes | 
3 | CCCCN(CCCC)c1ccc(/C=C/c2ccc(/C=C/c3ccc(-c4c5cc(Cl)c(=O)cc-5oc5cc(O)c(Cl)cc45)c(S(=O)(=O)O)c3)cc2)cc1 [VF2.4.Cl, 5-(4-(4-(dibutylamino)styryl)styryl)-2-(2,7-dichloro-6-hydroxy-3-oxo-3H-xanthen-9-yl)benzenesulfonic acid] | excellent membrane localization |  | strong membrane staining; also recorded: membrane localization; also recorded: bright cell staining limited to the cell membranes
4 | CCCCN(CCCC)c1ccc2cc(/C=C/c3cc[n+](CCCS(=O)(=O)[O-])cc3)ccc2c1 [di-4-ANEPPS, reference compound] | significant internalization; also recorded: significant uptake into internal membranes |  | 
